# In all, about 31,000 sequences went through this assay and about 1,400 (4.5%) were called active.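 The calls were made as follows: active = median seed-adjusted z-score above 1 or below -1; inactive = the rest.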 This is one part of the list.
# Assay: Novel Modifiers of Survival Motor Neuron (SMN) Protein: Gene Identification via Genome-wide siRNA Screen;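 also: luminescence tracks full-length SMN protein made from the SMN2 reporter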
# Conditions: HEK293T SMN2-luciferase reporter, siRNA knockdown, 72 h; actives lie on both sides
# Summary of the method: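 HEK293T cells stably expressing an SMN2 splicing/cDNA-luciferase reporter were reverse-transfected with a druggable-genome siRNA library and read by luminescence at 72 hours; hits defined by MAD score above 1.0 or below -1.0.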
row,Sequence,median seed-adjusted z-score
1,GCAAGUUACGGGACCGAAUTT against 12-Sep,inactive: 0.286
2,CACUGAAUUUGCUAAAAAUTT against SIK1,inactive: 0.887
3,GGAAGAAAGUGAAGCUUGATT against DNAJC17,inactive: 0.751
4,CCAACGAAGUGGUUACCUUTT against PFTK1,inactive: 0.088
5,AGCUGAAGCUCGACCACUATT against FKBP8,inactive: -0.304
6,AGAACUUCAUGGACAUAGATT against CNR1,inactive: 0.0359
7,GCCUUUCGGUUCCUGACCATT against CDC34,inactive: 0
8,CCCUAACAGUGUCUAAUGATT against CAPZA2,inactive: 0
9,GGACAUGAAUGGAAAACCATT against SORCS2,inactive: 0.648
10,CCAACACCAAUCUAGCUAATT against MYH2,inactive: -0.73
11,GGACUUGGUUACUUAUAUATT against ATP6V1C1,inactive: 0.0821
12,GAAUCGAGAUCGGAUGUCATT against HTT,inactive: -0.234
13,CAUCGAAGAAGUUACUGCATT against TDRD1,inactive: -0.164
14,GCGAUGACGUGAUCUGUGATT against COL1A1,inactive: 0
15,GCAACUUUGAUAUUCCAAATT against CLIC4,inactive: -0.498
16,AAAUUCAUGUAUCCACUUATT against SCARA5,inactive: -0.278
17,UUCACUUAAUGAUACCGAATT against VAPA,inactive: -0.623
18,CCCUGACAGGUCUCAAGUUTT against FSD1,inactive: 0.685
19,CGAUCGGAUUGUAAGGACATT against EML4,inactive: 0.958
20,GGAGCUUUCUAACCAUGUUTT against MTNR1B,inactive: -0.393
21,CUAACGAACUGAUCUGGUUTT against MAP3K4,inactive: 0.72
22,CAGAGACUCUAGAACUUAUTT against MYBL1,inactive: 0.344
23,GAACAGUAUUCACCUAGUUTT against FGFR2,inactive: 0.158

# Shown bar-delimited: entries from further up
row | Sequence | median seed-adjusted z-score
7 | GCCUUUCGGUUCCUGACCATT against CDC34 | inactive: 0
8 | CCCUAACAGUGUCUAAUGATT against CAPZA2 | inactive: 0
9 | GGACAUGAAUGGAAAACCATT against SORCS2 | inactive: 0.648
10 | CCAACACCAAUCUAGCUAATT against MYH2 | inactive: -0.73

# More records:

row,Sequence,median seed-adjusted z-score
1,GCGAAGAGAUCUACAUUAATT against ABR,inactive: 0.314
2,AGACCGAACUGGUUUCGCUTT against CDKN2C,inactive: -0.0789
3,GCCUCAGUGUUAUUCGAUATT against MAP1B,inactive: 0.139
4,CGAGUUAUUGAGUAUCAUATT against TEX14,inactive: -0.107
5,GGGUCGUCAGUUACAAGGATT against RIPK5,inactive: -0.00523
6,GAAGUGAGGUUUCCACUGUTT against FOXP3,inactive: -0.421
7,CCACCUUACUUUCCUGAAUTT against TMEM171,inactive: 0.278
8,GUAUGAGGCUAUGACUAAATT against SSX2,inactive: -0.583
9,GGCUCACAGGUGAUCAUCATT against ZNF653,inactive: -0.202
10,GAUUAUUAAGGGCAAACCATT against SLC22A11,inactive: 0
11,GCUUUCUAAUGAAAGUAGATT against OSBPL3,inactive: 0.0159
12,GCCUUUAUGUGGACAUUAATT against SLCO2B1,inactive: 0.289
13,AAAUGGAAGGAAUAGGUUUTT against ARL6IP5,inactive: -0.202
14,ACACGGCAUUAAAAAGCUATT against JRK,inactive: -0.624
15,GAUCAGUCUUUAUGCUGAATT against VPS41,inactive: 0.52
16,AGUUCAGAGGAACACCUAATT against EDN1,inactive: 0.0717
17,UCGUCAUGUUGAACUAUAATT against ERBB3,inactive: -0.561
18,GGAGAAAACCUUCGAGCAGTT against NKX6-2,inactive: 0.101
19,CAACCAAUGCGACCUUAAATT against PTP4A1,inactive: 0.103
20,GGAACACUUUUUGAACUCATT against SKP1,inactive: -0.0492
21,CGACAGCGGAUGUAAACUATT against PKD1,inactive: -0.228
22,GACUAUCAUUGACAUCAAUTT against ADAMTS5,inactive: -0.306
23,GCUCAAGAGUCUAAACGAUTT against ZC3H7A,inactive: 0.208

row,Sequence,median seed-adjusted z-score
1,GGAUGUAAACAGUCUUCGATT against JMJD1A,inactive: 0.466
2,GCUGCAAGGUGAUCAUUGATT against LIMK2,inactive: -0.0288
3,CCAGGUCUCGAAAACCAAATT against EN2,inactive: 0.319
4,GAAUCGGCAAGGUUGGAAATT against PSMD7,inactive: 0.0973
5,GAGUGAUCAGAGACCGAAATT against IARS,inactive: -0.198
6,CAGCUGUACCGAUUAAGCATT against MEP1A,inactive: 0.209
7,CGACAGCGAUACCUCCUUATT against LMX1B,inactive: 0.125
8,GGAACAGUUCUAUUCUAUUTT against SORT1,inactive: -0.43
9,CGUAUAUGCCGAGAUCUCATT against PCNA,inactive: 0.0727
10,GGACUGGUCUUGUUAGGCUTT against SEC24C,inactive: 0.163
11,GCAUCUACAGUGGAUUGUATT against LRRN3,inactive: 0
12,CCAACGAUCAUGUUAAUAATT against FH,inactive: 0.182
13,GGUGAGCUUGGAUAUGAAATT against OGFRL1,inactive: 0.0339
14,GUCUGUUAUCAGAACUUAATT against IDE,inactive: -0.081
15,GGAUAAUACAAAUCUACGATT against IL1RL2,inactive: -0.555
16,GGGUUGCUAGAAAAUCGUATT against USP37,inactive: 0.0907
17,GCUGGAAGCCUGUCAAAGATT against OAS1,inactive: 0.442
18,GCUGUCUACUUACCACCAATT against ESD,inactive: -0.196
19,GAGAGCAAUUCUACCAUAATT against HMGCS2,inactive: -0.465
20,GCAACUACGUCUUCACCAUTT against CACNA1H,inactive: -0.147
21,CAAUGUUAGGAGUCAGUCATT against ACTL6A,active: 1.11
22,GAGUGGUCUUUUCAACACUTT against TGIF1,inactive: 0.303
23,CACUAACUCUGGACCCUAATT against TRIM69,inactive: 0.214

# From PubChem BioAssay AID1347426 (Functional Genomics Laboratory (NCATS/FGL), 2020)
